Data published in PubChem BioAssay AID720504 (National Center for Advancing Translational Sciences (NCATS), 2013).
The whole screen tested about 360,000 compounds, of which about 10,000 (2.8%) were called active. This list was built around the results that the source calls inconclusive (neither active nor inactive); the mix of calls is not that of the screen. The call rests on the fitted dose curve; in most records, active means well fitted inhibition curve with a large enough effect; inconclusive means small, poorly fitted or top-dose-only effect; inactive means flat fitted curve, though single readings scatter. Where the call is inconclusive, the potency comes from a doubtful curve fit.
Further: nearly all actives have a fitted effect of over 65% in size.
On the % scale 0 is the no-effect control and ±100 the full control effect; potency means the concentration at half of the fitted maximal effect.
Wherever max response, negative = inhibition is given: series mostly up to about 57 µM.

Sequences of proteins named here, by UniProt entry; tags and fusion partners are left off.
UniProt P53350, whole entry, looked up: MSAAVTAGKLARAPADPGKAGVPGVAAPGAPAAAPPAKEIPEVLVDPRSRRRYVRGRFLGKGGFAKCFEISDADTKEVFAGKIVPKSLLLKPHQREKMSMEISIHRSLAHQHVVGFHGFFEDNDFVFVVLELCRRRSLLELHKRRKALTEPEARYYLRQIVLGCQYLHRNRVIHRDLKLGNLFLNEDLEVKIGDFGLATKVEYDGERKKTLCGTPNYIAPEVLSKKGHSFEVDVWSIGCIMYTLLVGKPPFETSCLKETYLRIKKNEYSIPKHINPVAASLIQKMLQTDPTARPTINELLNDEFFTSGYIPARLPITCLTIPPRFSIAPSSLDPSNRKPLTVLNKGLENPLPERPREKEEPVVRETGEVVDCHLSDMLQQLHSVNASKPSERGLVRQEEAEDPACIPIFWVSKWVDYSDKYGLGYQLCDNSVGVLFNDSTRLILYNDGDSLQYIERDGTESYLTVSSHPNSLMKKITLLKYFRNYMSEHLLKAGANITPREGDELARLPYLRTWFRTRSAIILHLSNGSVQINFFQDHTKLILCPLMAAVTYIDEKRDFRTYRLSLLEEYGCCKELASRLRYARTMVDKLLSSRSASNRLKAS

What follows are compounds tested against Serine/threonine-protein kinase PLK1 (Homo sapiens) (UniProt P53350) (assay: qHTS for Inhibitors of PLK1-PDB (polo-like kinase 1 - polo-box domain): Primary Screen). Settings: Plk1 PBD binding of FITC phosphopeptide, fluorescence polarization.
COc1ccccc1OCC(=O)Nc1ccc(S(=O)(=O)NC(C)=O)cc1 was tested, and the Potency was inconclusive: 21.2 µM [inhibitor, partial curve]. With COc1cc(C(c2c(C)[nH][nH]c2=O)c2c(C)[nH][nH]c2=O)ccc1OS(=O)(=O)c1ccc(C)cc1 the max response, negative = inhibition was inconclusive: -32.6% [inhibitor]. With NC(=O)C1CC(=O)N(c2ccc(OCc3ccc(Cl)cc3)cc2)C1 (stereo not given) the Potency was active: 5.97 µM. COc1cc(OC)cc(C2=Cc3ccccc3C(CC(=O)c3ccco3)N2c2ccc(-c3ccc(C(N)=O)cc3)cc2)c1 (stereo not given) was tested, and the max response, negative = inhibition was inactive: -22.6%. With CC(C)(C)c1cc(C(=O)N/N=C/c2ccc(-c3ccccc3[N+](=O)[O-])o2)n[nH]1 the Potency was inconclusive: 13.4 µM [inhibitor, partial curve]. In the case of Cc1cccc(Nc2nnc(SC/C(O)=C(\C#N)c3nc4ccccc4[nH]3)s2)c1, the max response, negative = inhibition is reported as inactive: -7.44%. In the case of COc1ccc(NC(=S)NC(NC(C)=O)C(Cl)(Cl)Cl)c([N+](=O)[O-])c1 (stereo not given), the Potency is reported as active: 23.8 µM. With COc1cc(/C=C2\SC(=O)N(Cc3ccc(Cl)cc3)C2=O)cc([N+](=O)[O-])c1O the Potency was active: 23.8 µM. With S=C(Nc1ccc(Cl)cc1Cl)N1CCCCC1 the max response, negative = inhibition was inactive: -5.21%. With Cc1nn(Cc2c(F)cccc2Cl)c(C)c1[N+](=O)[O-] the Potency was inconclusive: 37.7 µM [inhibitor, single point]. In the case of Cc1nnc(SCC(=O)NNC(=O)c2ccccc2)n1-c1ccccc1, the max response, negative = inhibition is reported as inactive: -2.66%. In the case of Clc1ccc(CSc2nnc(Cn3cnc4ccccc43)o2)cc1, the Potency is reported as inconclusive: 26.7 µM [inhibitor, partial curve]. In the case of CC1CCc2c(sc3ncnc(SCC(=O)c4ccccc4)c23)C1 (stereo not given), the Potency is reported as active: 13.4 µM. For COc1ccc(/C=C2/SC(=S)N(CCCC(=O)Nc3ccccc3C(=O)O)C2=O)cc1, the max response, negative = inhibition was inconclusive: -34.5% [inhibitor]. In the case of CC(O)(c1ccc(F)c(F)c1)c1nc(-c2ccncc2)cs1 (stereo not given), the max response, negative = inhibition is reported as inactive: -10.2%. With CCc1cc(=O)oc2c(C)c(OS(C)(=O)=O)ccc12 the max response, negative = inhibition was inactive: -6.31%. With CN(C)S(=O)(=O)c1ccc(Cl)c(NC(=O)COC(=O)c2ccc3c(c2)NC(=O)CS3)c1 the Potency was inconclusive: 23.8 µM [inhibitor, partial curve]. For CS(=O)(=O)N1CCN(Cc2ccccc2C(F)(F)F)CC1, the max response, negative = inhibition was inactive: -8.86%. Cc1ccc(S(=O)(=O)/N=C2/NC(=O)/C(=C\c3ccco3)S2)cc1 was tested, and the Potency was inconclusive: 33.6 µM [inhibitor, single point]. With CCOC(=O)c1c(NC(=O)Cn2cnc([N+](=O)[O-])n2)sc(C)c1C the Potency was active: 23.8 µM.
